In PubChem BioAssay AID1487 (National Center for Advancing Translational Sciences (NCATS), 2009) one finds AC50 data, which are given here for 55 compounds.

Where “and” joins values, the source holds several entries; their conditions need not be identical. Identical values can stand only once. The list shows a part of the results. These are further read-outs of the screen, such as a control signal, another cell line or another target. No call is given for them. The list favours compounds with an active or inconclusive main result. The note in brackets gives the kind of curve behind each potency; many fits are weak.

This test is described as follows: qHTS Assay for Modulators of Lamin A Splicing. The following applies: HeLa LMNA splicing GFP/RFP minigene ratio, 48 h. Summed up:
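Read-out is the ratio of GFP to DsRed2 object intensity, acquired by 488 nm laser-scanning cytometry on HeLa lamin A-EGFP minigene reporter cells. Compound incubation 48 hrs at 37 °C in Opti-MEM with 2% FBS; DMSO 0.5% final.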
For orientation: Quantitative high-throughput screening tests each substance at several concentrations.

Where [1] appears, read: measured here: GFP splicing reporter channel.
The mark [2] stands for this setting: measured here: RFP viability control channel.

As for `CSc1ccc(/C=C/C(=O)OCC(=O)N(C)CCC#N)cc1`, the AC50 under setting [1] was 11.2 µM [falling, partial curve, poor fit]. Turning to `c1ccc(Cn2nnc3c(N4CCCCCC4)ncnc32)cc1`, under setting [2], the AC50 is 35.5 µM [rising, single point]. Consider `O=C(N/N=C/c1ccc([N+](=O)[O-])cc1)c1cccc2cc[nH]c12`, for which the concentration at half-maximal activity (AC50) under setting [2] is 10 µM [rising, partial curve, poor fit]. Consider `O=C(OCc1nc2ccccc2s1)c1cccc(S(=O)(=O)N2CCOCC2)c1`, for which the AC50 under setting [1] was 14.1 µM [rising, single point] and the half-maximal activity concentration (AC50) under setting [2] is 12.6 µM [rising, single point].

Turning to `CCN1CCN(C(=S)NC(=O)/C=C/c2cccs2)CC1`, the AC50 is, setting by setting: under setting [1], 20 µM [falling, partial curve]; under setting [2], 7.08 µM [falling, full curve]. For the compound `COc1ccccc1CCn1c(=O)c(-c2cccc(Cl)c2)nc2cncnc21`, the AC50 under setting [1] is 11.2 µM [falling, partial curve, poor fit].

Regarding `CCSc1nc2ccccc2n1C(=O)/C=C/c1ccc(OC)c(OC)c1`, the AC50 is 3.16 µM [falling, full curve] under setting [1] and 3.55 µM [falling, single point] under setting [2]. In the case of `COC(=O)c1cn(CCOc2ccccc2OC)c2ccccc12`, the AC50 is 35.5 µM [rising, single point] under setting [1] and 25.1 µM [rising, single point] under setting [2]. Consider `CCCn1c(Sc2nnnn2-c2ccccc2)n[nH]c1=O`, for which the AC50 under setting [2] is 11.2 µM [rising, single point]. Regarding `O=C(CSc1nc2ccccc2o1)Nc1cc(C(F)(F)F)ccc1N1CCOCC1`, the AC50 under setting [2] was 31.6 µM [rising, single point]. Still for that read-out and setting: the figure for `COC(=O)c1c(NC(NC(C)=O)C(Cl)(Cl)Cl)sc2c1CCCC2` (centres undefined) is 31.6 µM [rising, single point]; for `CCOC(=O)c1cc(-c2ccc(N)cc2)sc1N` it is 20 µM [rising, single point]. With `Cc1cccc(N2CCN(CCCNc3ncnc4onc(-c5ccc(Cl)cc5)c34)CC2C)c1` (centres undefined), the AC50 under setting [1] is 10 µM [falling, partial curve, poor fit]. Regarding `O=C(Nc1ccc(S(=O)(=O)N2CCN(Cc3ccccc3)CC2)cc1)c1cnccn1`, the concentration at half-maximal activity (AC50) under setting [2] is 3.55 µM [rising, full curve]. The same measure, in the same setting: under `CCc1nnc(NS(=O)(=O)c2ccc(N/C=C\C(=O)c3cccc(OC)c3)cc2)s1` stands 0.0251 µM [rising, full curve, poor fit]. For `O=[N+]([O-])c1ccc(Sc2n[nH]c(-c3ccc(Cl)cc3Cl)n2)nc1`, the AC50 under setting [1] is 11.2 µM [rising, partial curve] and the AC50 under setting [2] was 0.501 µM [rising, partial curve, poor fit]. As for `O=C(NCc1ccc2c(c1)OCO2)c1ccc(COc2cc(Cl)ccc2Cl)o1`, the AC50 under setting [2] was 15.8 µM [rising, single point].

For the compound `CN(C)c1ccc(-c2n(C)c3ccccc3[n+]2C)cc1`, the half-maximal activity concentration (AC50) under setting [2] is 3.55 µM [rising, partial curve, poor fit]. Same read-out and setting: the figure for `COC(=O)c1c(NC(=O)CN2CCN(c3ccccc3Cl)CC2)sc(C)c1C` is 22.4 µM [rising, partial curve, poor fit].

Take `Cc1ccc(NC(=O)CN2C(=O)NC(C)(c3ccc(Cl)cc3)C2=O)cc1S(=O)(=O)N1CCOCC1` (centres undefined): the AC50 under setting [2] was 12.6 µM [rising, partial curve]. Still for that read-out and setting: the figure for `CN(C)S(=O)(=O)c1ccc(C(=O)Nc2nnc(-c3cccs3)o2)cc1` is 1.58 µM [rising, full curve, poor fit]; for `CC(=O)N1CCc2cc(CNC(=O)Cc3ccc(F)cc3)ccc21` it is 0.00398 µM [falling, full curve, poor fit]. Same read-out and setting: under `CCOC(=O)c1cnc2c(C)c(C)ccc2c1Nc1ccc(S(=O)(=O)Nc2ncccn2)cc1` stands 0.0316 µM [rising, full curve, poor fit]. For `CCCCc1ccc(/C=C2\C(=O)c3ccccc3C(O)=C2C(=O)OCC)cc1`, the AC50 is 35.5 µM [falling, single point] under setting [1] and 17.8 µM [rising, single point] under setting [2].

For the compound `Cc1nnc(SCC(=O)c2cc(C)n(-c3ccc4c(c3)OCO4)c2C)s1`, under setting [2], the concentration at half-maximal activity (AC50) was 10 µM [rising, partial curve]. For `CCn1cc(C(=O)N2CCN(c3ccc([N+](=O)[O-])cc3)CC2)c(=O)c2ccc(C)nc21`, the AC50 under setting [2] was 1.26 µM [rising, single point]. Still for that read-out and setting: the figure for `Cc1ccccc1NC(=S)NNc1ncc(C(F)(F)F)cc1Cl` is 35.5 µM [rising, single point]. On to `CN(C)/C=C(/C(=O)c1ccccc1)n1cncn1`, for which the AC50 runs as follows: under setting [1], 0.708 µM [rising, full curve, poor fit]; under setting [2], 0.447 µM [rising, full curve, poor fit].

In the case of `CCCC/C=C/C(NC(=O)CCc1ccccc1)c1ccccc1` (centres undefined), under setting [2], the AC50 is 22.4 µM [rising, single point]. The same measure, in the same setting: under `O=C(NC(NNc1ccc([N+](=O)[O-])cc1)(C(F)(F)F)C(F)(F)F)c1ccc(F)cc1` stands 0.0355 µM [rising, full curve, poor fit]. As for `OCCN1CCN(CC/C=C2/c3ccccc3Sc3ccc(C(F)(F)F)cc32)CC1`, the AC50 is, setting by setting: under setting [1], 4.47 nM [rising, full curve, poor fit] and 15.8 µM [falling, partial curve]; under setting [2], 17.8 µM [rising, partial curve] and 20 µM [falling, partial curve].

In the case of `COc1ccc(C(=O)Nc2nc(-c3ccccc3)c(C(C)=O)s2)c(OC)c1`, the concentration at half-maximal activity (AC50) under setting [1] is 3.55 µM [falling, full curve] and the AC50 under setting [2] is 4.47 µM [falling, full curve, poor fit].

In the case of `CC(C)CCN1CCN(Cc2cnc(-c3ccccc3)s2)CC1CCO` (centres undefined), the AC50 under setting [1] is 0.112 µM [falling, full curve, poor fit] and the AC50 under setting [2] is 0.178 µM [falling, full curve, poor fit]. For the compound `Cc1cc(-c2nnc(SCC(=O)c3ccc4c(c3)OCCO4)o2)no1`, under setting [2], the AC50 is 35.5 µM [rising, single point]. `O=C(Nc1cccc(NC(=O)c2cccs2)c1)c1ccc2c(c1)OCO2`: the AC50 under setting [1] is 0.00316 µM [falling, full curve, poor fit]. Turning to `Cc1cc(/C=N/n2cnnc2)c(O)c([N+](=O)[O-])c1`, the AC50 was 1.78 µM [rising, full curve, poor fit] under setting [1] and 8.91 µM [rising, partial curve] under setting [2]. For `CCNc1ncc2ncc(=O)n(Cc3cccc(OC)c3)c2n1`, under setting [1], the AC50 is 12.6 µM [falling, single point]. On to `COc1ccc(NC(=S)NCCc2c[nH]c3ccccc23)c(OC)c1`, for which the half-maximal activity concentration (AC50) is, setting by setting: under setting [1], 15.8 µM [rising, single point]; under setting [2], 22.4 µM [rising, single point]. Regarding `Cc1ccc(Nc2nnc(SCC(=O)c3ccc(Br)s3)s2)c(C)c1`, the AC50 under setting [2] is 31.6 µM [rising, single point]. On the same count and under the same terms, the figure for `CN(c1ccc(C(=O)N2CCN(Cc3ccc4c(c3)OCO4)CC2)cc1)S(=O)(=O)c1ccccc1` is 11.2 µM [rising, partial curve]; for `Cc1ccccc1NC(=O)Cn1c(NCC(C)O)nc2ccccc21` (centres undefined) it is 1.12 µM [rising, full curve, poor fit]. Consider `O=C(CNC(=O)c1ccco1)OCC(=O)c1ccccc1Cl`, for which, under setting [1], the AC50 is 0.0126 µM [rising, full curve, poor fit].

For `COc1ccccc1N1CCN(c2ccc([N+](=O)[O-])cc2Cl)CC1`, the AC50 under setting [2] was 3.16 µM [rising, full curve].

With `CC(=O)N1C(C)(C)CC(=NOC(=O)c2ccccc2)CC1(C)C`, the AC50 under setting [1] was 3.98 µM [falling, single point] and the AC50 under setting [2] is 0.00501 µM [falling, full curve, poor fit]. As for `COC(=O)c1ccccc1NC(=O)c1ncoc1-c1ccco1`, the AC50 under setting [2] was 35.5 µM [falling, single point]. For the compound `CCCc1cc(=O)oc2c3c(ccc12)OCN(Cc1ccc(OC)cc1)C3`, the AC50 reads like this: under setting [1], 35.5 µM [falling, single point]; under setting [2], 25.1 µM [falling, partial curve, poor fit].

Turning to `O=C(N/N=C/c1ccccc1OC(=O)c1ccc2c(c1)OCO2)c1cccc(F)c1`, the AC50 under setting [2] is 12.6 µM [rising, single point]. Consider `Cc1ccc(-n2ccc(=O)c(-c3ccnc(SCc4cccc(Cl)c4)n3)n2)cc1`, for which the AC50 under setting [1] was 35.5 µM [falling, single point] and the concentration at half-maximal activity (AC50) under setting [2] is 35.5 µM [falling, single point].

For `CCCn1nc(C(=O)Nc2cccc(C(=O)OC)c2)c2ccccc2c1=O`, the AC50 under setting [2] was 31.6 µM [rising, single point]. For the compound `COc1ccccc1C(=O)N1CCC(C(=O)c2ccc(F)cc2)CC1`, the AC50 is 20 µM [rising, partial curve, poor fit] under setting [1] and 14.1 µM [rising, single point] under setting [2].

Take `N#Cc1c(-c2ccccc2)ccnc1N1CCOCC1`: the AC50 runs as follows: under setting [1], 0.00794 µM [falling, full curve, poor fit]; under setting [2], 22.4 µM [falling, partial curve, poor fit]. Take `COc1ccc(C(=O)NC(C(=O)N2CCc3ccccc32)C(C)C)cc1` (centres undefined): the AC50 reads like this: under setting [1], 0.0708 µM [falling, full curve]; under setting [2], 1.58 µM [falling, full curve]. In the case of `O=C(C1CCN(c2ncnc3c2nc2n3CCCCC2)CC1)N1CCN(c2cccc(Cl)c2)CC1`, the concentration at half-maximal activity (AC50) under setting [1] is 3.55 µM [falling, single point]. As to `Cc1ccc(Cl)cc1N1CCN(C(=O)C2(S(=O)(=O)c3ccc(Cl)cc3)CC2)CC1`, the AC50 under setting [2] is 12.6 µM [rising, single point]. On to `O=C(/C=C/c1ccc(O)c(O)c1)c1ccc(S(=O)(=O)N2CCCCCC2)cc1`, for which the concentration at half-maximal activity (AC50) is, setting by setting: under setting [1], 17.8 µM [rising, single point]; under setting [2], 12.6 µM [rising, partial curve].

What is called AC50 is the midpoint of the concentration-response curve, whichever way the signal moves.
